Publication PMC4171630
Results are given in words; binding and its absence hold for the method and conditions named. In cells and extracts the contact can be indirect. Some binding calls cover weakened binding; strength is not graded here. Sequences can lack the tags named with a protein.

Chains of the proteins cited; added tags and fusions are not shown.
UniProt P31749: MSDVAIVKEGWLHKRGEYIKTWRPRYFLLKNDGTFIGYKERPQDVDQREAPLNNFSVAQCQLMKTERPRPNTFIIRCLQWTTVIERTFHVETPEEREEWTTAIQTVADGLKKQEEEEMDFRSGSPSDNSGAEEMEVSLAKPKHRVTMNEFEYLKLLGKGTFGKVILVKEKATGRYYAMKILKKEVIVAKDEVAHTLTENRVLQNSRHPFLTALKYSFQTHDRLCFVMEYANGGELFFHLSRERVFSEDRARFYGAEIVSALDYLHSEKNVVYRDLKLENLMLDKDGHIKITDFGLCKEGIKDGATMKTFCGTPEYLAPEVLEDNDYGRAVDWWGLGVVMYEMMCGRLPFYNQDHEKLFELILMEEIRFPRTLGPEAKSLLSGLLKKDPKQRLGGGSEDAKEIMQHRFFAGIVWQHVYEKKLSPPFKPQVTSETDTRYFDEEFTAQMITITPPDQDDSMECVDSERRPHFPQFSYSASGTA

Molecular target: Myr-AKT (AKT with a myristoylation signal) (UniProt P31749)
Assay: co-IP; HEK 293 cells co-transfected with FLAG-cPLA2α and Myr-AKT for 36 h, stimulated with EGF (25 ng/ml, 15 min); 0.5 mg total protein incubated overnight with 2 μg anti-FLAG, anti-AKT or control IgG antibody; eluted proteins immunoblotted with anti-cPLA2α, anti-AKT and anti-pAKT

binding: binds
B1: FLAG-cPLA2α (cytosolic phospholipase A2α) (enzyme, UniProt P47712 1-749)
chain: MSFIDPYQHIIVEHQYSHKFTVVVLRATKVTKGAFGDMLDTPDPYVELFISTTPDSRKRTRHFNNDINPVWNETFEFILDPNQENVLEITLMDANYVMDETLGTATFTVSSMKVGEKKEVPFIFNQVTEMVLEMSLEVCSCPDLRFSMALCDQEKTFRQQRKEHIRESMKKLLGPKNSEGLHSARDVPVVAILGSGGGFRAMVGFSGVMKALYESGILDCATYVAGLSGSTWYMSTLYSHPDFPEKGPEEINEELMKNVSHNPLLLLTPQKVKRYVESLWKKKSSGQPVTFTDIFGMLIGETLIHNRMNTTLSSLKEKVNTAQCPLPLFTCLHVKPDVSELMFADWVEFSPYEIGMAKYGTFMAPDLFGSKFFMGTVVKKYEENPLHFLMGVWGSAFSILFNRVLGVSGSQSRGSTMEEELENITTKHIVSNDSSDSDDESHEPKGTENEDAGSDYQSDNQASWIHRMIMALVSDSALFNTREGRAGKVHNFMLGLNLNTSYPLSPLSDFATQDSFDDDELDAAVADPDEFERIYEPLDVKSKKIHVVDSGLTFNLPYPLILRPQRGVDLIISFDFSARPSDSSPPFKELLLAEKWAKMNKLPFPKIDPYVFDREGLKECYVFKPKNPDMEKDCPTIIHFVLANINFRKYRAPGVPRETEEEKEIADFDIFDDPESPFSTFNFQYPNQAFKRLHDLMHFNTLNNIDVIKEAMVESIEYRRQNPSRCSVSLSNVEARRFFNKEFLSKPKA
